Results are given in words; binding and its absence hold for the method and conditions named. Binding seen in cells or lysates may run through a third protein. A result given as binding can be weak or reduced; the word gives no strength.
Molecular target: LRP1, endogenous in human brain (human (endogenous in AD brain))
Experiment: co-IP; human AD brain lysates, IP with antibodies to DKK1, DKK3 and LRP1, IgG as negative control, immunoblot

- binding: binds
B1: DKK1, endogenous in human brain (ligand, UniProt O94907 32-266)
chain: TLNSVLNSNAIKNLPPPLGGAAGHPGSAVSAAPGILYPGGNKYQTIDNYQPYPCAEDEECGTDEYCASPTRGGDAGVQICLACRKRRKRCMRHAMCCPGNYCKNGICVSSDQNHFRGEIEETITESFGNDHSTLDGYSRRTTLSSKMYHTKGQEGSVCLRSSDCASGLCCARHFWSKICKPVLKEGQVCTKHRRKGSHGLEIFQRCYCGEGLSCRIQKDHHQASNSSRLHTCQRH

— paper PMC12594171, “DKK3-LRP1 complex and a chemical inhibitor regulate Aβ clearance in models of Alzheimer’s disease” (Science Advances, 2025)
